Laboratory results: PubChem BioAssay AID588590 (National Center for Advancing Translational Sciences (NCATS), 2011)
Screen size: about 390,000 compounds; about 4,000 (1%) were called active. Inconclusive results, whose numbers are uncertain, are shown with a selection of clear calls. Calls come from the whole dose curve; as a rule, active = well fitted inhibition curve with a large enough effect; inconclusive = small, poorly fitted or top-dose-only effect, or another doubt; inactive = no such curve, though single readings can be large or run the other way. A potency beside an inconclusive call is a rough fit, not a confirmed value.

Protein sequences, listed by entry. Tags and fused reporters are not part of them. Lines headed by an entry give the natural chain unless they say otherwise; changes in a name come on top.
UniProt Q9UNA4: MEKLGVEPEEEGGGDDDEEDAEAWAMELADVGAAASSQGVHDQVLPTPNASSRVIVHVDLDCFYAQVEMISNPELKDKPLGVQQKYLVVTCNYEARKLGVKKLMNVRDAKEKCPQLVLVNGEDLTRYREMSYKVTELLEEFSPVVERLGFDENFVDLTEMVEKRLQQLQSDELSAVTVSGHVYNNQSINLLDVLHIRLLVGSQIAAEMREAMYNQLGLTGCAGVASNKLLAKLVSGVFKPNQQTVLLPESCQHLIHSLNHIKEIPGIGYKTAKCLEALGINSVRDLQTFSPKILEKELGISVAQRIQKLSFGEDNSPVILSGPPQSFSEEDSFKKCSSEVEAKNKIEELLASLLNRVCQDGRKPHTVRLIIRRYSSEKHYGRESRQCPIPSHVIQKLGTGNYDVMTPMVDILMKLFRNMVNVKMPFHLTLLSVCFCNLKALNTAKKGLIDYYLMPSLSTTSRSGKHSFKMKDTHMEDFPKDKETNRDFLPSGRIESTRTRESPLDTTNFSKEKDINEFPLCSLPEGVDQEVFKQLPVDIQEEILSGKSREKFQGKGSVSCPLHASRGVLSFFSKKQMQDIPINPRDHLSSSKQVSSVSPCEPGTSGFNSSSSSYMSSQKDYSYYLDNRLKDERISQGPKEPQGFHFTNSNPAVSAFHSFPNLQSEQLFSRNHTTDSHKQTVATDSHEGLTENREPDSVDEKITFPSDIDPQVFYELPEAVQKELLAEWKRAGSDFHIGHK

Each molecule was assayed against DNA polymerase iota (Homo sapiens) (UniProt Q9UNA4) (assay: qHTS for Inhibitors of Polymerase Iota). Conditions: Pol iota fluorescent replication assay, 10 min; series mostly up to 115 µM.
Summary of the method: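 Pol iota at 10 nM preincubated 15 min with compounds at room temperature; reaction started with fluorescent substrate, 50 nM final. Fluorescence read kinetically at 0 and 10 min; buffer-only wells as negative control.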
Potency is the fitted concentration of half-maximal effect.

Compound | Potency
COc1ccc(CN2C(=O)/C(=C/c3ccncc3)SC2=S)cc1 | inconclusive: 2.51 µM [inhibitor, full curve, poor fit]
COc1ccc(CN(C)CC(O)COc2ccc(-c3ccccc3)cc2)cc1OC (centres undefined) | inconclusive: 25.1 µM [inhibitor, partial curve, poor fit]
COc1cc(NS(=O)(=O)c2c(C)nc3sc(C)c(C)n3c2=O)cc(OC)c1 | inactive
C/C=C(\C)C(=O)NCCN1C2=NC[C@@H](Cc3ccccc3)N2C[C@H]1Cc1ccc(O)cc1 | active: 70.8 µM
O=C(NC1CCCC1)c1ccc2nc[nH]c2c1 | inactive
Cc1ccc(NS(=O)(=O)c2ccc(C)c(C(=O)N3CCN(C)CC3)c2)cc1 | inconclusive: 31.6 µM [inhibitor, partial curve, poor fit]
CC(C)Cn1c(=S)[nH]c2cc(C(=O)O)ccc2c1=O | inactive
CCOC(=O)C1C(=O)NC(SCC(=O)Nc2nccs2)=C(C#N)C1c1ccccc1OCC (centres undefined) | inconclusive: 25.1 µM [inhibitor, single point]
CCn1c(C(=O)OC)cc2c1ccn2-c1ccc(F)cc1 | inconclusive: 3.16 µM [inhibitor, partial curve, poor fit]
CCCCC(=O)Nc1nnc(S(=O)(=O)N(C)Cc2ccccc2)s1 | inactive
Cc1cc(C(=O)NC2CCCCCC2)c2ccccc2n1 | inconclusive: 89.1 µM [inhibitor, single point]
COc1cc(/C=N/n2c(C3CCCCC3)n[nH]c2=S)ccc1O | inconclusive: 25.1 µM [inhibitor, single point]
NS(=O)(=O)c1cc2c(cc1Cl)NCNS2(=O)=O | inactive
O=C(CCC(=O)CCN1CCCCC1)CCN1CCCCC1 | inconclusive: 28.2 µM [inhibitor, partial curve, poor fit]
CCCC1=NN2C(=N)/C(=C\c3ccc(SCc4ccco4)o3)C(=O)N=C2S1 | active: 20 µM
COc1ccccc1N1CCN(C(=O)CSc2ncnc3scc(-c4ccccc4)c23)CC1 | inconclusive: 50.1 µM [inhibitor, partial curve]
Cc1ccc2[nH]c(=O)c3cc(C(=O)NC4CCC(C)CC4)sc3c2c1 (centres undefined) | inconclusive: 79.4 µM [inhibitor, partial curve]
Cc1cc(NC(=O)c2ccccc2)sc1C | inconclusive: 10 µM [inhibitor, single point]
Cc1cc(C)c2c(c1)/C(=C/C(=O)c1ccc(Br)s1)C(=O)N2 | inconclusive: 7.94 µM [inhibitor, partial curve]
N#Cc1cc([N+](=O)[O-])cnc1NCC(O)CO (centres undefined) | inconclusive: 89.1 µM [inhibitor, partial curve, poor fit]
Cc1ccsc1C(=O)NCC(C)(C)N1CCOCC1 | inconclusive: 2.82 µM [inhibitor, full curve, poor fit]
Cc1c(Cl)cccc1NC(=O)CSc1nc(=O)n(Cc2ccco2)c2c1CCC2 | inconclusive: 25.1 µM [inhibitor, partial curve, poor fit]

Compound | Potency
Cc1cc(C)c(OCC(=O)OC(C)C(=O)NCc2ccccc2)c(C)c1 (centres undefined) | inconclusive: 1.58 µM [inhibitor, full curve, poor fit]
Cc1ccc(-n2c(SCC(=O)NCc3ccco3)nc3nc4c(cc3c2=O)COC(C)(C)C4)cc1 | inconclusive: 14.1 µM [inhibitor, full curve, poor fit]
COCCNC(=O)c1ccc(-c2nc(CS(=O)(=O)c3ccccc3)c(C)o2)cc1 | inactive
CCOC(=O)/C(=C/C=C1\Sc2cc(C)c(C)cc2N1CC)C(C)=O | inactive
O=C1NC(=S)S/C1=C\c1coc2ccccc2c1=O | inconclusive: 22.4 µM [inhibitor, full curve]
COc1ccccc1NC(=O)CSc1nnc(C2CCCCC2)n1N | inconclusive: 20 µM [inhibitor, full curve, poor fit]
O=S(=O)(c1ccc(N2CCOCC2)nc1)N(Cc1ccccn1)Cc1ccccn1 | inactive
CCOC(=O)C1=C(O)/C(=C/c2ccc(OCC(=O)O)c(OC)c2)SC1=Nc1ccc(OCC)cc1 | inconclusive: 28.2 µM [inhibitor, single point]
O=C(Nc1nc2c(F)cccc2s1)c1ccco1 | inactive
Cc1sc(NC(=O)CCl)c(C(=O)c2ccccc2)c1C | inconclusive: 50.1 µM [inhibitor, full curve, poor fit]
CCOc1ccc(NCc2nc3ccccc3n2CCOc2ccc(C)cc2)cc1 | inactive
CC(=O)N1CCCc2cc(S(=O)(=O)N3CCCC(C(=O)NCc4ccc(C)cc4)C3)ccc21 (centres undefined) | inactive
CCCCONc1ncnc2nonc12 | inconclusive: 89.1 µM [inhibitor, partial curve, poor fit]
COc1ccc(/C=C/c2cccc[n+]2C)c(O)c1 | inconclusive: 70.8 µM [inhibitor, single point]
CC(=O)OCCNc1cc(N2CCN(C)CC2)c2noc3c2c1C(=O)c1ccccc1-3 | inactive
COC(=O)c1ccc(OCCOc2ccc(C(=O)OC)cc2)cc1 | inconclusive: 12.6 µM [inhibitor, single point]
COc1ccc(NC(=O)c2cc([N+](=O)[O-])ccc2O)cc1 | inactive
CCOc1ccc(C(c2c(C)[nH][nH]c2=O)c2c(C)[nH][nH]c2=O)cc1OC | inconclusive: 2.82 µM [inhibitor, partial curve, poor fit]
COc1ccc(-c2noc(-c3ccccc3F)n2)cc1 | inconclusive: 5.62 µM [inhibitor, full curve, poor fit]
N#Cc1ccsc1NC(=O)CN1CCOCC1 | inconclusive: 56.2 µM [inhibitor, partial curve, poor fit]
Cc1ccccc1-c1ccc(C(=O)Nc2cccc(F)c2)o1 | inconclusive: 39.8 µM [inhibitor, partial curve, poor fit]
CN(CC(=O)Nc1ccccc1Cl)CC(=O)Nc1sc2c(c1C(N)=O)CCC2 | inconclusive: 28.2 µM [inhibitor, partial curve, poor fit]

Four of the compounds above, as labelled records.
O=C1NC(=S)S/C1=C\c1coc2ccccc2c1=O
  Potency: inconclusive: 22.4 µM [inhibitor, full curve]
O=S(=O)(c1ccc(N2CCOCC2)nc1)N(Cc1ccccn1)Cc1ccccn1
  Potency: inactive
COc1ccc(NC(=O)c2cc([N+](=O)[O-])ccc2O)cc1
  Potency: inactive
COc1ccc(-c2noc(-c3ccccc3F)n2)cc1
  Potency: inconclusive: 5.62 µM [inhibitor, full curve, poor fit]
